# The list shows a part of the results.
# Target: T1, OsSMF1 (Oryza sativa, UniProt Q6ZLB0 1-436)
# T1 sequence: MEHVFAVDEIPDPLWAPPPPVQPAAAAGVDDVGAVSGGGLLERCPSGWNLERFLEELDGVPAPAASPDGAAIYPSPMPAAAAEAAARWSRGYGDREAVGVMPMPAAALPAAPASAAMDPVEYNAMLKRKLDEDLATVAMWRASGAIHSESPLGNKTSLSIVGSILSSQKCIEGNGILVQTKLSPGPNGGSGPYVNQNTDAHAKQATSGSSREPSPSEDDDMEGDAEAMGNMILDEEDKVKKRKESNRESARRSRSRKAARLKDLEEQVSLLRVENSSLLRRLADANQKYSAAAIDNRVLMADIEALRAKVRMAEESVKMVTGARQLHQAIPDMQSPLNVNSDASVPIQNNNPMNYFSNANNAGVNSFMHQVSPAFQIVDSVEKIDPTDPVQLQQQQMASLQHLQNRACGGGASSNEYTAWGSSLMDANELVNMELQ
# Experiment: protein-binding microarray (RPBM); PBS, 2% BSA, 51.3 ng/ul salmon testes DNA, 50 uM zinc acetate, 200 nM TF, 25 C, 1 h; high values mean tight binding
# Conditions: protein: recombinant; tags: N-terminal polyhistidine and DsRed monomer fusion (pET32a); chain copies: 2; label: CyDye5-dUTP incorporated in the synthesized complementary strand; 3' TTTTT single-stranded linker to array surface; dsDNA, one strand shown
# Outline: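 Binding signal here means per-feature fluorescence intensity in arbitrary units. The values were read on an Axon 4000B scanner after a custom Agilent array, double-stranded by primer extension with Cy5-dUTP, was incubated with 200 nM protein at 25 °C for 1 h in PBS with 2% BSA, salmon testes DNA and 50 µM zinc acetate, then washed. The proteins were transcription factors with an N-terminal polyhistidine tag and DsRed, expressed in E. coli BL21-CodonPlus and purified on Ni–NTA.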
row,Sequence,binding signal
1,AATTTGATTCTTTTAGCCATGCCACTACACGCGGTAGACTCGGAGTCACCTAGTGCAG,3340 fluorescence intensity (a.u.)
2,AATCTACATCTATGATCTGTCACTGCTTCTCTCTCTCTCCCGGAGTCACCTAGTGCAG,4680 fluorescence intensity (a.u.)
3,GAAGGTTTGAAGGATGTGGCATTCTGTTGATTTGGATTAACGGAGTCACCTAGTGCAG,4450 fluorescence intensity (a.u.)
4,CAGGAATTGTGTGTTGTATGCAAGTATGACATCCACAAGTCGGAGTCACCTAGTGCAG,3210 fluorescence intensity (a.u.)
5,AAAATGCTGTCAAATGGAGCTATCCGCGTGGATTCTCTGCCGGAGTCACCTAGTGCAG,4820 fluorescence intensity (a.u.)
6,GTACTGCGTCTACGTATACTCTCCTCTCTCTCTCTCACACCGGAGTCACCTAGTGCAG,4280 fluorescence intensity (a.u.)
7,CCACTAGCATGGGACAACTTCTCCTACACCCTCCGTGCCACGGAGTCACCTAGTGCAG,3160 fluorescence intensity (a.u.)
8,CTGTGAGTTCGTTGTCTGAGTGAGAGCTGGACGTGCTGCACGGAGTCACCTAGTGCAG,33000 fluorescence intensity (a.u.)
9,TTTATCACGTGGCTGTTCCACCAATATCACGTTGTCCTAGCGGAGTCACCTAGTGCAG,3930 fluorescence intensity (a.u.)
10,CAGTAATGTGCATTTGGTGAGTTGGTAGCCACCCGATCAACGGAGTCACCTAGTGCAG,3530 fluorescence intensity (a.u.)
11,AAGAAGTATATGGAAAGTGTGTACCATTAATCCAATCTTTCGGAGTCACCTAGTGCAG,3650 fluorescence intensity (a.u.)
12,TTTGCCGACCCAGTCTTCAAAGATGCTCATAGGGGTAGGGCGGAGTCACCTAGTGCAG,3360 fluorescence intensity (a.u.)
13,GGATCATGCCATTATGCGGTGACAAATGAACAAAACCCTGCGGAGTCACCTAGTGCAG,3900 fluorescence intensity (a.u.)
14,CTTTCGACATTCGGTCAAATATCTGACGTGACACTCAAATCGGAGTCACCTAGTGCAG,5540 fluorescence intensity (a.u.)
15,TATCTTGCAATTAAGTTGCAACCACGCCATCCTGCCTGAGCGGAGTCACCTAGTGCAG,4550 fluorescence intensity (a.u.)
16,ACGGGCACGACGACCGTCGTGCTCACGGCCGCCGACGTCGCGGAGTCACCTAGTGCAG,4140 fluorescence intensity (a.u.)
17,AAAGATGCGGGTCAATGCGACAGCGCCATCCGATCTCCCCCGGAGTCACCTAGTGCAG,25800 fluorescence intensity (a.u.)
18,GGAACTATGCGACTCATAATGGAATAAGAAATCCTGGGTTCGGAGTCACCTAGTGCAG,34200 fluorescence intensity (a.u.)
19,GGAGTGGGCCCCACATGTCATCGCGAGGCATCCTCCGTGGCGGAGTCACCTAGTGCAG,3460 fluorescence intensity (a.u.)
20,ATTACTCTACCATATCGACTGCGTCATCGCTGATCCATAGCGGAGTCACCTAGTGCAG,8920 fluorescence intensity (a.u.)
21,CTGTACATATGTCTGTGTGTGTGTCAGTGTGAGCGTTAGCCGGAGTCACCTAGTGCAG,3490 fluorescence intensity (a.u.)
22,TCGTAAGTAAATGTCGGATTTAATTCCATTATGTTAAAGACGGAGTCACCTAGTGCAG,3410 fluorescence intensity (a.u.)
23,ATATTCTTATACGTGCACTATTTCTATCCAACGTGGAATCCGGAGTCACCTAGTGCAG,5820 fluorescence intensity (a.u.)

# Exported with bars between the fields: part of the list above.
row | Sequence | binding signal
4 | CAGGAATTGTGTGTTGTATGCAAGTATGACATCCACAAGTCGGAGTCACCTAGTGCAG | 3210 fluorescence intensity (a.u.)
22 | TCGTAAGTAAATGTCGGATTTAATTCCATTATGTTAAAGACGGAGTCACCTAGTGCAG | 3410 fluorescence intensity (a.u.)
